# Experimental data published in PubChem BioAssay AID1347076 (National Center for Advancing Translational Sciences (NCATS), 2019).
# “And” between values parts separate entries of the source, which are not always exact repeats. Identical values can stand only once. Hit rate of the full screen: of about 400,000 compounds, about 13,000 (3.2%) were called active. Inconclusive results, whose numbers are uncertain, are shown with a selection of clear calls. Calls follow the shape of the dose curve; as a rule, active = well fitted cell-killing curve with a large enough effect; inconclusive = small, poorly fitted or top-dose-only effect, or effect the other way; inactive = flat fitted curve, though single readings scatter. Potencies beside an inconclusive call are fits to weak or partial responses and may not hold up.
# Experiment: qHTS assay for MDR1-selective chemotherapeutics: Primary screen using the drug-selected MDR subline cells KB-V1; also: nearly all actives have a fitted effect of over 60% in size
# Conditions: KB-V1 MDR cells viability, CellTiter-Glo, 72 h; activity change, negative = cytotoxicity: at 46.1 µM (top of the series)
# Summary of the method: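 Readout: CellTiter-Glo luminescence, 10 min after addition. Cells: KB-V1 MDR subline, 72 h at 37 degrees C with compound. Analysis: corrected, normalized data fitted to concentration-effect curves.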
# % is scaled to controls: 0 for no effect and ±100 for the full control effect; potency is read from the fitted curve at half-maximal effect.
SMILES,Potency,"activity change, negative = cytotoxicity"
COc1ccccc1Cn1c(/C=C/c2ccccc2)nc2ccccc21,active: 5.17 µM,–
CN(CCNC(=O)c1ccc(CS(=O)(=O)c2ccc(Br)cc2)o1)CCc1ccccc1,–,inactive: -4.59%
O=C(COC(=O)c1ccccc1)NCCC1=CCCCC1,–,inactive: -4.95%
CN(c1ccc(OCC(=O)Nc2nc(-c3ccccc3)cs2)cc1)S(=O)(=O)c1ccc(F)cc1,"inconclusive: 11.6 µM [cytotoxic, partial curve, poor fit]",–
CCN(CC(=O)Nc1c(F)cccc1F)C(=O)c1ccc(=O)n(Cc2ccccc2)n1,"inconclusive: 20.6 µM [cytotoxic, single point]",–
O=C(CCC1CCCN(Cc2ccc(O)c(Cl)c2)C1)NCc1ccccc1F (stereo not drawn),"inconclusive: 25.9 µM [cytotoxic, single point]",–
COc1ccccc1CNC(=O)CC(c1ccc(C)cc1)N1Cc2ccccc2C1=O (stereo not drawn),–,inactive: -3.71%
CC(c1ccon1)N(C)C(=O)CCc1nnc(C2(c3ccc(Cl)cc3)CCC2)o1 (stereo not drawn),"inconclusive: 29.1 µM [cytotoxic, single point]",–
CCN1CCN(c2cc(C(C)C)nc3c(-c4ccccc4)c(C)nn23)CC1,"inconclusive: 8.2 µM [cytotoxic, partial curve, poor fit]",–
COc1ccc(-c2ccnc(-c3ccc(O)cc3)n2)cc1,active: 7.31 µM,–
O=[N+]([O-])c1ccc(CSc2ncnc3ccccc23)cc1,"inconclusive: 25.9 µM [cytotoxic, single point]",–
Cc1ccc(CNC(=O)C2COc3ccccc3C2)cc1 (stereo not drawn),–,inactive: -23.3%
Cc1ccc(S(=O)(=O)/C=C2\OCc3ccccc32)cc1,–,inactive: -14.2%
CCc1ccc2oc(C(=O)NCCc3ccc(S(N)(=O)=O)cc3)cc(=O)c2c1,"inconclusive: 5.17 µM [rising, partial curve, poor fit]",–
CCOc1ccccc1C(=O)OCC(=O)NCC1CCCCC1,–,inactive: 0.0829%
CCOc1ccc(/C=N/NC(N)=S)cc1,"inconclusive: 23.1 µM [cytotoxic, single point]",–
O=C(O)CSC1=NS(=O)(=O)c2ccccc21,–,inactive: -17.4%
Cc1oc(-c2ccc(C(=O)NCCC(C)C)cc2)nc1CN1CCc2ccccc21,"inconclusive: 2.59 µM [cytotoxic, full curve]",–
CCOC(=O)CN1N=C(/C=C/c2ccc(C(C)C)cc2)CCC1=O,active: 2.31 µM,–
COc1cccc(N2CC(C(=O)N3CCC4(CC3)CC(=O)c3ccccc3O4)CC2=O)c1 (stereo not drawn),"inconclusive: 16.4 µM [cytotoxic, partial curve]",–
O=C(CCCSc1nnc(-c2cccs2)n1CC1CCCO1)c1ccccc1 (stereo not drawn),"inconclusive: 2.31 µM [cytotoxic, partial curve, poor fit]",–
Fc1ccc(N/N=C/c2ccncc2)c(F)c1,"inconclusive: 29.1 µM [cytotoxic, single point]",–

SMILES,Potency,"activity change, negative = cytotoxicity"
Cc1ccc(OCC(=O)OC2=C(C(=O)c3ccccc3)N(C)S(=O)(=O)c3ccccc32)cc1,"inconclusive: 14.6 µM [cytotoxic, partial curve, poor fit]",–
CCc1ccc(NS(=O)(=O)c2cc(-c3cnc(C4CC4)o3)ccc2C)cc1,"inconclusive: 5.17 µM [cytotoxic, full curve, poor fit]",–
Cc1cccc(N(CC(=O)NC(C)(C)C)C(=O)CCC(=O)Nc2ccccn2)c1,"inconclusive: 29.1 µM [cytotoxic, single point]",–
CCCn1c(SCC(=O)Nc2ccccc2N2CCCCC2)nc2c1c(=O)n(C)c(=O)n2C,"inconclusive: 20.6 µM [cytotoxic, partial curve, poor fit]",–
CC(=O)OC1c2c(ccc3ccc(=O)oc23)OC(C)(C)C1OC(=O)CC(C)C (stereo not drawn),active: 11.6 µM,–
O=[N+]([O-])c1cc(-c2ccc(/C=N/c3nc4ccccn4c3-c3ccco3)o2)ccc1Cl,"inconclusive: 29.1 µM [cytotoxic, single point]",–
CCOC(=O)c1sc(NC(=O)c2ccc(OC(C)=O)cc2)nc1C,active: 10.3 µM,–
CCn1c(C)cc(C(=O)COC(=O)c2ccccc2[N+](=O)[O-])c1C,active: 25.9 µM,–
COc1ccc(NC(=O)C2CCN(c3nnnn3-c3ccccc3)CC2)cc1,"inconclusive: 14.6 µM [cytotoxic, single point]",–
Cc1ccc(Cn2ncc3c(N4CCN(Cc5ccc(Cl)cc5)CC4)ncnc32)cc1,active: 2.59 µM,–
Cc1ccc(C)c(/C=N/NC(=S)NCCc2ccccc2)c1,"inconclusive: 18.4 µM [cytotoxic, partial curve, poor fit]",–
CCOC(=O)c1ccc(NC(=O)CN2CCN(C(=O)c3ccco3)CC2)cc1,"inconclusive: 11.6 µM [cytotoxic, partial curve, poor fit]",–
COc1ccccc1CNS(=O)(=O)c1ccc(-c2cnc(C3CC3)o2)cc1,"active: 5.8 µM and inconclusive: 651 nM [cytotoxic, full curve]",–
NS(=O)(=O)c1cccc(NC(=O)COC(=O)CCC2CCCC2)c1,"inconclusive: 29.1 µM [rising, single point]",–
COc1ccc(N(CC(=O)NC2CCCCC2)C(=O)CNC(=O)c2cccs2)cc1,"inconclusive: 32.6 µM [cytotoxic, partial curve, poor fit]",–
COc1ccccc1NC(=S)N1CCN(Cc2ccccc2)CC1,active: 14.6 µM,–
Cc1cc2cc(CNC(=S)Nc3ccc(OC(F)F)cc3)ccc2n1C,–,inactive: 6.02%
Cc1ccc(Cl)cc1NC(=O)c1cc(NC(=O)C2CCCCC2C(=O)O)ccc1N1CCOCC1 (stereo not drawn),"inconclusive: 18.4 µM [cytotoxic, partial curve, poor fit]",–
Cc1cccc(C)c1C(O)c1ncc(-c2cccc3ccccc23)[nH]1 (stereo not drawn),–,inactive: 5.26%
O=C(c1cccc(F)c1)N1CCCC(C(=O)N2CCN(c3ccccc3)CC2)C1 (stereo not drawn),"inconclusive: 13 µM [cytotoxic, partial curve]",–
O=C(c1cc(-c2cccs2)nc2ccccc12)N1CCN(c2ccccc2)CC1,"inconclusive: 10.3 µM [cytotoxic, partial curve, poor fit]",–
